At least one compound was matched to its structure with a doubt left.
Experiments:
[1] = system: calcineurin-dependent nuclear import of NF-AT4; details: BHK cells stimulated with ionomycin; cited from earlier work
[2] = system: BHK cells transfected with CnA and CnB; assay: Calcium ionophore-induced apoptosis of BHK cells transfected with CnA/CnB; format: cell-based, baby hamster; details: ionomycin, low serum
Protocol: FIG. 7: Cells transfected with CnA/CnB (0.5 μg each) were serum deprived for four hours and stimulated with ionomycin (0.25 μM) for one hour in low serum media alone or containing CsA (800 nM), 6 MeAla-CsA (800 nM), and MeBm2t-CsA (800 nM), FK506 (100 nM).
Calcium signaling plays an important and yet mechanistically vague role in a wide range of cell death, including neuronal cell death in stroke and lymphocyte cell death during positive and negative selection. To test the possibility that calcineurin, a calcium-activated phosphatase, participates in cell death, we asked if cells overexpressing calcineurin would show an enhanced sensitivity to calcium ionophore-induced cell death (Shibasaki and McKeon, 1995). We co-transfected calcineurin A and B subunits into baby hamster kidney (BHK) cells and treated them with calcium ionophore approximately 16 hours later.

Row | SMILES | block of GFP-NF-AT4 nuclear import [1] | effect on calcineurin-induced apoptosis [2]
1 | C=CC[C@@H]1/C=C(\C)C[C@H](C)C[C@H](OC)[C@H]2O[C@@](O)(C(=O)C(=O)N3CCCC[C@H]3C(=O)O[C@H](/C(C)=C/[C@@H]3CC[C@@H](O)[C@H](OC)C3)[C@H](C)[C@@H](O)CC1=O)[C@H](C)C[C@@H]2OC [FK506] | block the nuclear import of GFP-NF-AT4 | 
2 | CO[C@H]1C[C@@H]2CC[C@@H](C)[C@@](O)(O2)C(=O)C(=O)N2CCCC[C@H]2C(=O)O[C@H]([C@H](C)C[C@@H]2CC[C@@H](O)[C@H](OC)C2)CC(=O)[C@H](C)/C=C(\C)[C@@H](O)[C@@H](OC)C(=O)[C@H](C)C[C@H](C)/C=C/C=C/C=C/1C [rapamycin] |  | not

Source: patent publication US7396905B1, “Calcipressins: endogenous inhibitors of calcineurin, uses and reagents related thereto” (priority 1999, dated 2008)
